Measurements reported in PubChem BioAssay AID1224826 (NIAID, 2016).
Screen: 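Regulators of Tlr4 signalling leading to Tnf-alpha expression in macrophages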 (primary screen). System: RAW264.7 G9 macrophages from mouse bearing reporters for p65 (GFP) and the Tnf promoter (mCherry). Knock-down reagent: siRNA pool against mouse genes, 100 nM. Time to read-out: 16 h of LPS stimulation, after 2 days of siRNA transfection. Treatment: bacterial lipopolysaccharide (Salmonella minnesota R595), 10 ng/ml. Read-out: 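Nuclear mCherry signal of the Tnf promoter reporter measured by imaging after background removal, scaled to each plate median and turned into robust z-scores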. Reading the numbers: Tnf reporter robust z-score: higher = stronger Tnf promoter reporter signal after LPS. Rule for the call: 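Called active when robust z-score is at most -1.3, matching the median of the Tlr4 knock-down control, or over 3; control wells and wells with under 50 cells never active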. Meaning of the calls: active = Tnf reporter clearly lowered or raised; inactive = no clear change in Tnf reporter.
The whole screen tested about 17,000 reagents; shown is a part drawn at random. About 1,110 of all reagents (6.6%) count as active. 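Active means lowered or raised reporter signal; replicate intensities are raw and not normalised per plate.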 A number with no mark means an inactive call. The numbers tell different reagents against one gene apart. Further read-outs or replicates are left out here. No sequences are given here.

For Gdf5 (growth differentiation factor 5) the deposit lists Tnf reporter robust z-score 0.73; fewer than 50 cells in well enough cells in well.
Tpbg (trophoblast glycoprotein) showed Tnf reporter robust z-score 0.97; fewer than 50 cells in well enough cells in well.
Cpa5 (carboxypeptidase A5) gave Tnf reporter robust z-score -0.39; fewer than 50 cells in well enough cells in well.
Macroh2a1 (macroH2A.1 histone) showed Tnf reporter robust z-score -0.27; fewer than 50 cells in well enough cells in well.
With knock-down of Wtip (WT1 interacting protein), the record shows Tnf reporter robust z-score 0.63; fewer than 50 cells in well enough cells in well.
Dgcr6 (DiGeorge syndrome critical region gene 6) showed Tnf reporter robust z-score 0.1; fewer than 50 cells in well enough cells in well.
Silencing of Id3 (inhibitor of DNA binding 3) resulted in: Tnf reporter robust z-score -0.08; fewer than 50 cells in well enough cells in well.
Knock-down of Mtmr12 (myotubularin related protein 12) gave: Tnf reporter robust z-score 0.3; fewer than 50 cells in well enough cells in well.
Depletion of Nrgn (neurogranin) gave: Tnf reporter robust z-score -0.1; fewer than 50 cells in well enough cells in well.
Silencing of Col4a4 (collagen, type IV, alpha 4) #1 came out at: Tnf reporter robust z-score -1.38 (active); fewer than 50 cells in well enough cells in well.
For Col4a4 (collagen, type IV, alpha 4) #2, the entry reads fewer than 50 cells in well fewer than 50 cells per well; well left out of calls.
Against Tbrg3 (transforming growth factor beta regulated gene 3) the deposit lists Tnf reporter robust z-score 1.91; fewer than 50 cells in well enough cells in well.
With knock-down of Kng2 (kininogen 2), the screen gave Tnf reporter robust z-score -0.51; fewer than 50 cells in well enough cells in well.
Slc20a1 gave Tnf reporter robust z-score 1.16; fewer than 50 cells in well enough cells in well.

Just “fewer than 50 cells in well” (2 entries from above):
Id3 (inhibitor of DNA binding 3)	enough cells in well
Mtmr12 (myotubularin related protein 12)	enough cells in well
